This is an account of results in article PMC6755124.

Results are given in words; binding and its absence hold for the method and conditions named. In cells and extracts the contact can be indirect. Tags and fused reporters may be left off the sequences shown.

The assay addresses T1, C6orf203::FLAG (C-terminal FLAG tagged C6orf203) (human) (UniProt Q9P0P8).
T1 sequence: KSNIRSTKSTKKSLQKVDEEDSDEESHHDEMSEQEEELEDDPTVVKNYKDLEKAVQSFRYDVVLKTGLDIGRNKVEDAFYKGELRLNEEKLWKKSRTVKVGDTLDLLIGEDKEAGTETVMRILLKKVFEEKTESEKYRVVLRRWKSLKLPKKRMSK
In words: co-IP; FLAG immunoprecipitation without crosslinking from mitochondrial lysate of HEK293T expressing C6orf203::FLAG; anti-FLAG M2 agarose; lysis, wash and elution buffers with 5 mM MgCl2; eluted with 3x FLAG peptide; eluate immunoblotted; control HEK293T without FLAG protein. On the technique in general: Immunoblotting shows a protein as a band on a membrane.

As for bS16m (from UniProt Q9Y3D3 35-137), the binding result is recorded as “no binding”.
